Test results: paper PMC8410936
These are yes or no findings as the source states them, for the method shown. Some entries that bind do so weakly or less than the wild type. Tags and fused reporters may be left off the sequences shown.

T1: PapD chaperone with His-tag (uropathogenic Escherichia coli) (UniProt P15319)
T1 sequence: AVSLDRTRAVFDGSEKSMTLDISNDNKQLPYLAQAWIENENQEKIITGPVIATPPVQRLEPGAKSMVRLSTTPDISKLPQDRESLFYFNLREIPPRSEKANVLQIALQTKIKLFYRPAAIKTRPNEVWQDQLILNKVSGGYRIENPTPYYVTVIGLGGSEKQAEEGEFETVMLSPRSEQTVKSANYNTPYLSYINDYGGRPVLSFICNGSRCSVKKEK

T2: PapD chaperone with His-tag (uropathogenic Escherichia coli), P15319
T2 chain: T1 sequence

B1: PapK (protein, UniProt P62532 22-178)
chain: SDVAFRGNLLDRPCHVSGDSLNKHVVFKTRASRDFWYPPGRSPTESFVIRLENCHATAVGKIVTLTFKGTEEAALPGHLKVTGVNAGRLGIALLDTDGSSLLKPGTSHNKGQGEKVTGNSLELPFGAYVVATPEALRTKSVVPGDYEATATFELTYR
B2: PapC usher, P07110 25-836 (protein)
chain: ASAVEFNTDVLDAADKKNIDFTRFSEAGYVLPGQYLLDVIVNGQSISPASLQISFVEPALSGDKAEKKLPQACLTSDMVRLMGLTAESLDKVVYWHDGQCADFHGLPGVDIRPDTGAGVLRINMPQAWLEYSDATWLPPSRWDDGIPGLMLDYNLNGTVSRNYQGGDSHQFSYNGTVGGNLGPWRLRADYQGSQEQSRYNGEKTTNRNFTWSRFYLFRAIPRWRANLTLGENNINSDIFRSWSYTGASLESDDRMLPPRLRGYAPQITGIAETNARVVVSQQGRVLYDSMVPAGPFSIQDLDSSVRGRLDVEVIEQNGRKKTFQVDTASVPYLTRPGQVRYKLVSGRSRGYGHETEGPVFATGEASWGLSNQWSLYGGAVLAGDYNALAAGAGWDLGVPGTLSADITQSVARIEGERTFQGKSWRLSYSKRFDNADADITFAGYRFSERNYMTMEQYLNARYRNDYSSREKEMYTVTLNKNVADWNTSFNLQYSRQTYWDIRKTDYYTVSVNRYFNVFGLQGVAVGLSASRSKYLGRDNDSAYLRISVPLGTGTASYSGSMSNDRYVNMAGYTDTFNDGLDSYSLNAGLNSGGGLTSQRQINAYYSHRSPLANLSANIASLQKGYTSFGVSASGGATITGKGAALHAGGMSGGTRLLVDTDGVGGVPVDGGQVVTNRWGTGVVTDISSYYRNTTSVDLKRLPDDVEATRSVVESALTEGAIGYRKFSVLKGKRLFAILRLADGSQPPFGASVTSEKGRELGMVADEGLAWLSGVTPGETLSVNWDGKIQCQVNVPETAISDQQLLLPCTPQK
B3: PapE (protein, UniProt P08407 25-173)
chain: VDNLTFRGKLIIPACTVSNTTVDWQDVEIQTLSQNGNHEKEFTVNMRCPYNLGTMKVTITATNTYNNAILVQNTSNTSSDGLLVYLYNSNAGNIGTAITLGTPFTPGKITGNNADKTISLHAKLGYKGNMQNLIAGPFSATATLVASYS
B4: PapF (protein, UniProt P08408 19-167)
chain: ADVQINIRGNVYIPPCTINNGQNIVVDFGNINPEHVDNSRGEVTKTISISCPYKSGSLWIKVTGNTMGGGQNNVLATNITHFGIALYQGKGMSTPLILGNGSGNGYGVTAGLDTARSTFTFTSVPFRNGSGILNGGDFQTTASMSMIYN

What was measured:
[1] = molecular target: T1, PapD chaperone with His-tag (uropathogenic Escherichia coli); assay: isolation of assembly intermediates from bacteria; complexes formed in bacteria and isolated; no data shown, details not told
[2] = molecular target: T2, PapD chaperone with His-tag …; assay: cryo-EM structure; ∆E complex PapCDHisK_(E-NTE)FG made in vivo, purified from the outer membrane by the His-tag on PapD, 25 mM Tris-HCl pH 8.0, 120 mM NaCl, 0.1% DDM; Conformer I, 7.6 Å; settings: remark: other sources report otherwise
[3] = molecular target: T2, PapD chaperone with His-tag …; assay: isolation of assembly intermediates from bacteria; complexes formed in bacteria and isolated; no data shown, details not told; settings: remark: other sources report otherwise
[4] = molecular target: T2, PapD chaperone with His-tag …; assay: cryo-EM structure; ∆EF complex PapCDHisK_(F-NTE)G made in vivo, purified from the outer membrane by the His-tag on PapD, 25 mM Tris-HCl pH 8.0, 120 mM NaCl, 0.1% DDM; Conformer II at 3.8 Å and Conformer III at 7.2 Å from one dataset; settings: remark: other sources report otherwise

Binder | binding [1] | binding [2] | binding [3] | binding [4]
B1 | binds | – | – | –
B2 | – | binds | binds | binds
B3 | binds | – | – | –
B4 | binds | – | – | –
